In the supplement of paper PMC12889115:
Some of the results follow. These are raw signals, not scaled to a control.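 In the initial screen, polymyxin B was used at a concentration that permeabilizes Salmonella's outer membrane but not its inner membrane. Maximum growth was set by DMSO wells with or without polymyxin B. Since plates varied, data were ranked per plate, and compounds giving the lowest OD600 advanced as hits.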

Test system: Salmonella enterica serovar Typhimurium SL1344
Experiment: bacterial growth OD600 after 18 h with compound and polymyxin B; higher = more bacterial growth (less inhibition)
Details: 50 µM, Mueller-Hinton broth

SMILES | bacterial growth OD600 (polymyxin B 1 µg/mL) | bacterial growth OD600 (polymyxin B 0.75 µg/mL)
CCn1ccnc1CN1CCCC(CNC(=O)c2cc(OC)cc(OC)c2)C1 (stereo not given) | 0.928 | –
COc1ccc(OC2CCN(C3CCCC3)CC2)c(C(=O)N2CCN(C)C(=O)[C@@H]2C)c1 | 0.924 | –
O=C(CCn1nnnc1CN1CCOCC1)N1CCN(C2CCCC2)C(=O)C1 | – | 0.786
O=C(NCCN1Cc2ccccc2OC(c2ccsc2)C1)c1cccc(N2CCNC2=O)c1 (stereo not given) | – | 0.688
COc1cc(NC(=O)CCC2CCCN(C(=O)c3scnc3C)C2)cc(OC)c1 (stereo not given) | 1.04 | –
O=C1CCC(CCNCCOc2ccc(F)cc2)N1CCCc1ccncc1 (stereo not given) | – | 0.779
Cn1nccc1C(=O)N1CCC2(CCCN(Cc3cccc(F)c3F)C2=O)C1 (stereo not given) | 0.59 | –
O=C(c1coc(COc2ccc(F)cc2Cl)n1)N1CCC(O)CC1 | 0.896 | –
CCOC(=O)C1(Cc2ccccc2F)CCCN(Cc2cnc(SC)nc2)C1 (stereo not given) | 0.965 | –
CSc1ccccc1C(=O)NCc1c(C)ncc2c1CCN(C(=O)c1ccc(OC(C)C)cc1)C2 | – | 0.802
COCCN1CC(C(=O)NCc2cccc(C)n2)CCC1=O (stereo not given) | 0.966 | –
CCc1nc(CNC(=O)C2CCC(=O)N(CCN3CCOCC3)C2)cs1 (stereo not given) | 0.906 | –
O=C(NC1CCCc2c1cnn2-c1ccccc1F)C1=CCCC1 (stereo not given) | 1.13 | –
CCC(=O)N1CCC2(CC1)c1ccccc1[C@@H](NC(=O)c1ccccc1OC)[C@@H]2OC | – | 0.855
COCc1ccc(C(=O)Nc2ccc(-c3nc(CNC(=O)Cc4ccc(F)cc4)c(C)o3)cc2)o1 | – | 0.846
CC1CCN(C(=O)c2coc(COc3cccc(C(F)(F)F)c3)n2)CC1 | 0.026 | –
COc1cc(CN(C(=O)Cc2csc(-c3ccccc3)n2)[C@H]2CCCCNC2=O)ccc1OCCc1scnc1C | – | 0.57
CCn1c(-c2cccnc2)nc2cc(NC(=O)COC)cc(C(=O)NCCc3ccc(F)cc3)c21 | – | 0.745
COc1ncccc1C(=O)NC1CC(=O)N(CCc2cccc(Cl)c2)C1 (stereo not given) | 0.929 | –
COc1ccccc1OC1CCN(C(=O)Cn2cc(NC(=O)COc3ccccc3)cn2)CC1 | – | 0.813

Two entries drawn at random from those above, as already listed:
SMILES | bacterial growth OD600 (polymyxin B 1 µg/mL) | bacterial growth OD600 (polymyxin B 0.75 µg/mL)
O=C(CCn1nnnc1CN1CCOCC1)N1CCN(C2CCCC2)C(=O)C1 | – | 0.786
O=C(c1coc(COc2ccc(F)cc2Cl)n1)N1CCC(O)CC1 | 0.896 | –
